Source: US20210115154A1 (Chugai, published 2021)
These are yes or no findings as the source states them, for the method shown. Binding can be weak; no strength is given.

B1: MAS0154dd (antibody, human IgG4 S228P, kappa, V domains shown)
VH: QSVEESGGRLVTPGTPLTLTCTVSGFSLSNYNMGWVRQAPGEGLEYIGIISSQGDIYYATWAKGRFTISKTSTTVDLKITSPTTEDTATYFCARARHVGSAADSYFHLWGLGTLVTVSS
VL: AVVLTQTASPVSAAVGGTVTINCQASEEIYRNLAWYQQKPGQRPKLLIYGASNLASGVPSRFSGSGSGTEYTLTISDLECADAATYYCQRYAWGKNSADGNTFGGGTKVEIKR
notes: Rabbit/human chimeric antibody: rabbit variable regions recombined with F760G4 and kOMTC constant regions; also called anti-MASP-1 chimeric mAb MAS0154dd
B2: MAS0177hh (antibody, human IgG4 S228P, kappa, V domains shown)
VH: QSVEESGGRLVTPGTPLTLTCTASGFSLSSAYMNWVRQAPGKGLEWIGIIYASGSTWYASWAKGRFTISKTSTTVDLKITSPTTEDTATYFCARDDYGTADLWGPGTLVTVSS
VL: AVVLTQTASPVSAPVGGTVTIKCQASQSIGSSLAWYQQKPGQSPKLLIYGASTLVSGVSSRFSGSRSGTEFSLTISDLECADAATYYCQNYYLSSSSADRRTFGGGTKVEIKR
notes: Rabbit/human chimeric antibody: rabbit variable regions recombined with F760G4 and kOMTC constant regions; also called anti-MASP-1 chimeric mAb MAS0177hh
B3: MAS0114bb (antibody, human IgG4 S228P, kappa, V domains shown)
VH: QSVEESGGRLVTPGTPLTLTCTASGFDINNYAIHWVRQAPGEGLEWIGYIYARSGVTWYASWVKGRFTISKTSTTVDLKMTSLTTEDTATYFCARVLAGGGYANTGLSLWGPGTLVTVSS
VL: DIVMTQTPSSVSAAVGGTVTIKCQASQNIGYSSAWYQQKPGQRPKLMIYGASTLASGVPSRFSGSGSGTEYTLTISGVQCDDAATYYCQSNYISSGSVDGTFGGGTKVEIKR
notes: Rabbit/human chimeric antibody: rabbit variable regions recombined with F760G4 and kOMTC constant regions; also called anti-MASP-1 chimeric mAb MAS0114bb
B4: MAS0102dd (antibody, human IgG4 S228P, kappa, V domains shown)
VH: QSVEESGGRLVTPGTPLTLTCTVSGFSLSSYAMSWVRQAPGKGLEWIGIITNLDNTYYANWAKGRFTISKTSTTVDLKITSPTTEDTAAYLCARERIKRKYSYDDYGGWAFDPWGPGTLVTVSS
VL: QVLTQTPSSVSGPVGGTVTINCQAIENIYRSLAWYQQKPGQPPKLLIYDTSDLASGVPSRFSGSGSGTEYTLTISGVQCDDAATYYCQSYYYSSVTYNAFGGGTKVEIKR
notes: Rabbit/human chimeric antibody: rabbit variable regions recombined with F760G4 and kOMTC constant regions; also called anti-MASP-1 chimeric mAb MAS0102dd
B5: MAS0141aa (antibody, human IgG4 S228P, kappa, V domains shown)
VH: QSVEESGGRLVTPGTPLTLTCTASGFSLINYYMTWVRQAPGKGLEWIGIINTDGGTYYASWAKGRFTISRTSTTVDLKMTSLTTEDTATYFCARGVFTGGWTGMRTNLWGPGTLVTVSS
VL: DVVMTQTPASVEAAVGGTVTIKCQASEDIYILLAWYQQKPGQPPKLLIYAASNLESGVPSRFKGSGSGTEFTLTISDLECADAATYYCQCTYGSSSSNAFGGGTKVEIKR
notes: Rabbit/human chimeric antibody: rabbit variable regions recombined with F760G4 and kOMTC constant regions; also called anti-MASP-1 chimeric mAb MAS0141aa
B6: MAS0116aa (antibody, human IgG4 S228P, kappa, V domains shown)
VH: QSLEESGGRLVTPGTPLTLTCTASGFSLSSCYMSWVRQAPGEGLEWIGTIYTGSGATYYASWAKGRFTVSITSTTVDLKITSPTTEDTATYFCARAIYPGSSSSNLCAFDLWGPGTLVTVSS
VL: QVLTQTPASVSAAVGGTVTINCQASQSVYDNNWLAWYQQKPGQPPKLLIYQASSLASGVPSRFKGSGSGAQFTLTISDLECDDAATYFCQGYYAGVLYSFGGGTKVEIKR
notes: Rabbit/human chimeric antibody: rabbit variable regions recombined with F760G4 and kOMTC constant regions; also called anti-MASP-1 chimeric mAb MAS0116aa

Each binder was assayed against Human MASP-1 (CCP1-CCP2-SP S646A) (human) (assay: ELISA, antibody captured by goat anti-human IgG, 8 nM biotinylated antigen).

binding, binds:
B1
B2
B3
B4
B5
B6
